Amino acid sequences for entries named in this document (tags omitted). A change or cut given only in a name is not applied to a line headed by its entry.
UniProt P11166: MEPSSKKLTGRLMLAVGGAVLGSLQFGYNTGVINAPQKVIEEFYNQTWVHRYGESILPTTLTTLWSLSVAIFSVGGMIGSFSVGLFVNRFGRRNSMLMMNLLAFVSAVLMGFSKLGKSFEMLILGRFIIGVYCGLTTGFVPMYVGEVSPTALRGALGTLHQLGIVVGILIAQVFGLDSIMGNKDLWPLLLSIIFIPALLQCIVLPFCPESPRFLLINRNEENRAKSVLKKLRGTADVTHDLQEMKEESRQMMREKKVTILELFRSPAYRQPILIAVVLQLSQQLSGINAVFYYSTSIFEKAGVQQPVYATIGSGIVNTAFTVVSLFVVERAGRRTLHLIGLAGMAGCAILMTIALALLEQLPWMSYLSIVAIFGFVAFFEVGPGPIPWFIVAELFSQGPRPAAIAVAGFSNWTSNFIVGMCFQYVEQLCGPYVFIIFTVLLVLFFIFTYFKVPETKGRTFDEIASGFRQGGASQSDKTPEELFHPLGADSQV
UniProt P03230: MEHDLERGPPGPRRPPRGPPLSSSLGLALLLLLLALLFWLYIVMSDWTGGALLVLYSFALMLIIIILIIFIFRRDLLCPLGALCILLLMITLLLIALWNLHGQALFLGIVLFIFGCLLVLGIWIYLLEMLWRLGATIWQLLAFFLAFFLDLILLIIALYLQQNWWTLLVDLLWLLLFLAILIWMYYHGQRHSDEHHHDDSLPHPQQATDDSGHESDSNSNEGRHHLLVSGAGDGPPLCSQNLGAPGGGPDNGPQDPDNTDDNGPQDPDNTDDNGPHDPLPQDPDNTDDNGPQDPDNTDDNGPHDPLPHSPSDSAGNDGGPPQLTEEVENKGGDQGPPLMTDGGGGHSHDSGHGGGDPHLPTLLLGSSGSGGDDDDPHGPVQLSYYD

According to paper PMC5540616:

Molecular target: glucose transporter 1 (GLUT1), endogenous (human (endogenous in CNE2 and TW03)) (UniProt P11166)
Assay: co-IP; CNE2 cells expressing Flag-tagged full-length LMP1, LMP1 1–230 or LMP1 1–322; LMP1 forms pulled down by GLUT1, immunoblot

Row | Substance | binding
1 | Flag-tagged truncated LMP1 1-230 (from UniProt P03230) (domain or fragment) | no binding
2 | Flag-tagged truncated LMP1 1-322 (from UniProt P03230) (domain or fragment) | binds

These are yes or no findings as the source states them, for the method shown. In cells and extracts the contact can be indirect. A result given as binding can be weak or reduced; the word gives no strength.
